# In the supplement of paper PMC11546906:
# Counter-ions that a name gives are not always drawn. The list shows a part of the results. This data set is noisy: repeats of one test often differ as much as different tests do.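 FDA-approved drugs were each paired with colistin at one-eighth its MIC and screened against a multidrug-resistant, mcr-1-positive clinical E. coli isolate, with OD600 read after 24 h. Drug-free bacteria served as growth control, plain broth as blank. Combinations were active if OD600 dropped below 0.2.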
# Tested on: Escherichia coli 42 (mcr-1-positive clinical isolate)
# Assay: OD600 after 24 h growth with compound plus colistin (absorbance units (OD600)); higher = more bacterial growth (less inhibition)
# Conditions: first compound 25 µM; colistin concentration 0.5 ug/mL; incubation time 24 h; 37 °C
row,SMILES,OD600
1,CN(C)/N=N/c1[nH]cnc1C(N)=O [Dacarbazine] + CCC(C)CCCC(=O)N[C@@H](CCN)C(=O)N[C@H](C(=O)N[C@@H](CCN)C(=O)N[C@H]1CCNC(=O)[C@H]([C@@H](C)O)NC(=O)[C@H](CCN)NC(=O)[C@H](CCN)NC(=O)[C@H](CC(C)C)NC(=O)[C@@H](CC(C)C)NC(=O)[C@H](CCN)NC1=O)[C@@H](C)O [colistin],inactive: 1.02
2,c1ccc2[nH]c(-c3cscn3)nc2c1 [Thiabendazole] + CCC(C)CCCC(=O)N[C@@H](CCN)C(=O)N[C@H](C(=O)N[C@@H](CCN)C(=O)N[C@H]1CCNC(=O)[C@H]([C@@H](C)O)NC(=O)[C@H](CCN)NC(=O)[C@H](CCN)NC(=O)[C@H](CC(C)C)NC(=O)[C@@H](CC(C)C)NC(=O)[C@H](CCN)NC1=O)[C@@H](C)O [colistin],inactive: 0.792
3,CC(C)CN(C[C@@H](O)[C@H](Cc1ccccc1)NC(=O)O[C@H]1CO[C@H]2OCC[C@H]21)S(=O)(=O)c1ccc(N)cc1 [Darunavir Ethanolate] + CCC(C)CCCC(=O)N[C@@H](CCN)C(=O)N[C@H](C(=O)N[C@@H](CCN)C(=O)N[C@H]1CCNC(=O)[C@H]([C@@H](C)O)NC(=O)[C@H](CCN)NC(=O)[C@H](CCN)NC(=O)[C@H](CC(C)C)NC(=O)[C@@H](CC(C)C)NC(=O)[C@H](CCN)NC1=O)[C@@H](C)O [colistin],inactive: 0.815
4,COC(=O)N[C@H](C(=O)N1CCC[C@H]1c1ncc(-c2ccc(-c3ccc(-c4cnc([C@@H]5CCCN5C(=O)[C@@H](NC(=O)OC)C(C)C)[nH]4)cc3)cc2)[nH]1)C(C)C [Daclatasvir dihydrochloride] + CCC(C)CCCC(=O)N[C@@H](CCN)C(=O)N[C@H](C(=O)N[C@@H](CCN)C(=O)N[C@H]1CCNC(=O)[C@H]([C@@H](C)O)NC(=O)[C@H](CCN)NC(=O)[C@H](CCN)NC(=O)[C@H](CC(C)C)NC(=O)[C@@H](CC(C)C)NC(=O)[C@H](CCN)NC1=O)[C@@H](C)O [colistin],inactive: 1.04
5,CC(C)/N=c1\cc2n(-c3ccc(Cl)cc3)c3ccccc3nc-2cc1Nc1ccc(Cl)cc1 [Clofazimine] + CCC(C)CCCC(=O)N[C@@H](CCN)C(=O)N[C@H](C(=O)N[C@@H](CCN)C(=O)N[C@H]1CCNC(=O)[C@H]([C@@H](C)O)NC(=O)[C@H](CCN)NC(=O)[C@H](CCN)NC(=O)[C@H](CC(C)C)NC(=O)[C@@H](CC(C)C)NC(=O)[C@H](CCN)NC1=O)[C@@H](C)O [colistin],inactive: 1.15
6,CCOC(=O)N[C@@H]1CC[C@@H]2[C@@H](C1)C[C@H]1C(=O)O[C@H](C)[C@H]1[C@H]2/C=C/c1ccc(-c2cccc(F)c2)cn1 [Vorapaxar sulfate] + CCC(C)CCCC(=O)N[C@@H](CCN)C(=O)N[C@H](C(=O)N[C@@H](CCN)C(=O)N[C@H]1CCNC(=O)[C@H]([C@@H](C)O)NC(=O)[C@H](CCN)NC(=O)[C@H](CCN)NC(=O)[C@H](CC(C)C)NC(=O)[C@@H](CC(C)C)NC(=O)[C@H](CCN)NC1=O)[C@@H](C)O [colistin],inactive: 0.978
7,NC[C@@H]1O[C@H](O[C@H]2[C@@H](O)[C@H](O[C@@H]3[C@@H](O)[C@H](N)C[C@H](N)[C@H]3O[C@H]3O[C@H](CN)[C@@H](O)[C@H](O)[C@H]3N)O[C@@H]2CO)[C@H](N)[C@@H](O)[C@@H]1O [Framycetin sulfate] + CCC(C)CCCC(=O)N[C@@H](CCN)C(=O)N[C@H](C(=O)N[C@@H](CCN)C(=O)N[C@H]1CCNC(=O)[C@H]([C@@H](C)O)NC(=O)[C@H](CCN)NC(=O)[C@H](CCN)NC(=O)[C@H](CC(C)C)NC(=O)[C@@H](CC(C)C)NC(=O)[C@H](CCN)NC1=O)[C@@H](C)O [colistin],inactive: 1.12
8,CC1=CC(=O)c2ccccc2C1=O [Menadione] + CCC(C)CCCC(=O)N[C@@H](CCN)C(=O)N[C@H](C(=O)N[C@@H](CCN)C(=O)N[C@H]1CCNC(=O)[C@H]([C@@H](C)O)NC(=O)[C@H](CCN)NC(=O)[C@H](CCN)NC(=O)[C@H](CC(C)C)NC(=O)[C@@H](CC(C)C)NC(=O)[C@H](CCN)NC1=O)[C@@H](C)O [colistin],inactive: 0.831
9,CC[C@H]1OC(=O)[C@H](C)[C@@H](O[C@H]2C[C@@](C)(OC)[C@@H](O)[C@H](C)O2)[C@H](C)[C@@H](O[C@@H]2O[C@H](C)C[C@H](N(C)C)[C@H]2O)[C@](C)(O)C[C@@H](C)C(=O)[C@H](C)[C@@H](O)[C@]1(C)O [Erythromycin] + CCC(C)CCCC(=O)N[C@@H](CCN)C(=O)N[C@H](C(=O)N[C@@H](CCN)C(=O)N[C@H]1CCNC(=O)[C@H]([C@@H](C)O)NC(=O)[C@H](CCN)NC(=O)[C@H](CCN)NC(=O)[C@H](CC(C)C)NC(=O)[C@@H](CC(C)C)NC(=O)[C@H](CCN)NC1=O)[C@@H](C)O [colistin],active: 0.038
10,N#Cc1ccc2[nH]cc(CCCCN3CCN(c4ccc5oc(C(N)=O)cc5c4)CC3)c2c1 [Vilazodone Hydrochloride] + CCC(C)CCCC(=O)N[C@@H](CCN)C(=O)N[C@H](C(=O)N[C@@H](CCN)C(=O)N[C@H]1CCNC(=O)[C@H]([C@@H](C)O)NC(=O)[C@H](CCN)NC(=O)[C@H](CCN)NC(=O)[C@H](CC(C)C)NC(=O)[C@@H](CC(C)C)NC(=O)[C@H](CCN)NC1=O)[C@@H](C)O [colistin],inactive: 1.03
11,NC[C@H](O)c1ccc(O)c(O)c1 [Noradrenaline bitartrate] + CCC(C)CCCC(=O)N[C@@H](CCN)C(=O)N[C@H](C(=O)N[C@@H](CCN)C(=O)N[C@H]1CCNC(=O)[C@H]([C@@H](C)O)NC(=O)[C@H](CCN)NC(=O)[C@H](CCN)NC(=O)[C@H](CC(C)C)NC(=O)[C@@H](CC(C)C)NC(=O)[C@H](CCN)NC1=O)[C@@H](C)O [colistin],inactive: 0.919
12,CC(=O)/N=c1/sc(S(N)(=O)=O)nn1C [Methazolamide] + CCC(C)CCCC(=O)N[C@@H](CCN)C(=O)N[C@H](C(=O)N[C@@H](CCN)C(=O)N[C@H]1CCNC(=O)[C@H]([C@@H](C)O)NC(=O)[C@H](CCN)NC(=O)[C@H](CCN)NC(=O)[C@H](CC(C)C)NC(=O)[C@@H](CC(C)C)NC(=O)[C@H](CCN)NC1=O)[C@@H](C)O [colistin],inactive: 1.04
13,CC(C)NCC(O)c1ccc(O)c(O)c1 (stereo not drawn) [Isoprenaline hydrochloride] + CCC(C)CCCC(=O)N[C@@H](CCN)C(=O)N[C@H](C(=O)N[C@@H](CCN)C(=O)N[C@H]1CCNC(=O)[C@H]([C@@H](C)O)NC(=O)[C@H](CCN)NC(=O)[C@H](CCN)NC(=O)[C@H](CC(C)C)NC(=O)[C@@H](CC(C)C)NC(=O)[C@H](CCN)NC1=O)[C@@H](C)O [colistin],inactive: 1.13
14,CC/C(=C(/CC)c1ccc(O)cc1)c1ccc(O)cc1 [Diethylstilbestrol] + CCC(C)CCCC(=O)N[C@@H](CCN)C(=O)N[C@H](C(=O)N[C@@H](CCN)C(=O)N[C@H]1CCNC(=O)[C@H]([C@@H](C)O)NC(=O)[C@H](CCN)NC(=O)[C@H](CCN)NC(=O)[C@H](CC(C)C)NC(=O)[C@@H](CC(C)C)NC(=O)[C@H](CCN)NC1=O)[C@@H](C)O [colistin],active: 0.035
15,CCC1(c2ccccc2)C(=O)NCNC1=O [Primidone] + CCC(C)CCCC(=O)N[C@@H](CCN)C(=O)N[C@H](C(=O)N[C@@H](CCN)C(=O)N[C@H]1CCNC(=O)[C@H]([C@@H](C)O)NC(=O)[C@H](CCN)NC(=O)[C@H](CCN)NC(=O)[C@H](CC(C)C)NC(=O)[C@@H](CC(C)C)NC(=O)[C@H](CCN)NC1=O)[C@@H](C)O [colistin],inactive: 0.893
16,CNC(=O)c1cc(Oc2ccc(NC(=O)Nc3ccc(Cl)c(C(F)(F)F)c3)cc2)ccn1 [Sorafenib tosylate] + CCC(C)CCCC(=O)N[C@@H](CCN)C(=O)N[C@H](C(=O)N[C@@H](CCN)C(=O)N[C@H]1CCNC(=O)[C@H]([C@@H](C)O)NC(=O)[C@H](CCN)NC(=O)[C@H](CCN)NC(=O)[C@H](CC(C)C)NC(=O)[C@@H](CC(C)C)NC(=O)[C@H](CCN)NC1=O)[C@@H](C)O [colistin],active: 0.045
17,C/C(=C\C(=O)OCCCCCCCCC(=O)O)C[C@@H]1OC[C@H](C[C@@H]2O[C@H]2[C@@H](C)[C@H](C)O)[C@@H](O)[C@H]1O [Mupirocin] + CCC(C)CCCC(=O)N[C@@H](CCN)C(=O)N[C@H](C(=O)N[C@@H](CCN)C(=O)N[C@H]1CCNC(=O)[C@H]([C@@H](C)O)NC(=O)[C@H](CCN)NC(=O)[C@H](CCN)NC(=O)[C@H](CC(C)C)NC(=O)[C@@H](CC(C)C)NC(=O)[C@H](CCN)NC1=O)[C@@H](C)O [colistin],active: 0.037
18,NC(=O)N[C@@H](CCC(=O)O)C(=O)O [Carglumic Acid] + CCC(C)CCCC(=O)N[C@@H](CCN)C(=O)N[C@H](C(=O)N[C@@H](CCN)C(=O)N[C@H]1CCNC(=O)[C@H]([C@@H](C)O)NC(=O)[C@H](CCN)NC(=O)[C@H](CCN)NC(=O)[C@H](CC(C)C)NC(=O)[C@@H](CC(C)C)NC(=O)[C@H](CCN)NC1=O)[C@@H](C)O [colistin],inactive: 0.997

# Nos. 1 through 2 of the list above:
row,SMILES,OD600
1,CN(C)/N=N/c1[nH]cnc1C(N)=O [Dacarbazine] + CCC(C)CCCC(=O)N[C@@H](CCN)C(=O)N[C@H](C(=O)N[C@@H](CCN)C(=O)N[C@H]1CCNC(=O)[C@H]([C@@H](C)O)NC(=O)[C@H](CCN)NC(=O)[C@H](CCN)NC(=O)[C@H](CC(C)C)NC(=O)[C@@H](CC(C)C)NC(=O)[C@H](CCN)NC1=O)[C@@H](C)O [colistin],inactive: 1.02
2,c1ccc2[nH]c(-c3cscn3)nc2c1 [Thiabendazole] + CCC(C)CCCC(=O)N[C@@H](CCN)C(=O)N[C@H](C(=O)N[C@@H](CCN)C(=O)N[C@H]1CCNC(=O)[C@H]([C@@H](C)O)NC(=O)[C@H](CCN)NC(=O)[C@H](CCN)NC(=O)[C@H](CC(C)C)NC(=O)[C@@H](CC(C)C)NC(=O)[C@H](CCN)NC1=O)[C@@H](C)O [colistin],inactive: 0.792
